Test results published in paper PMC7314967.
No constants are given. Whether binding was seen depends on the method and setting. In cells and extracts the contact can be indirect. Some binding calls cover weakened binding; strength is not graded here.

Assays:
[1] = biological target: STOMATAL CYTOKINESIS … 2/RIPENING-REGULATED PROTEIN 1 (SCD2/RRP1), YFP^C fusion for BiFC (Arabidopsis thaliana) (UniProt Q8RWD5); experiment: split reporter; BiFC with split YFP (pSPYNE/pSPYCE) in N. benthamiana leaf epidermal cells after Agrobacterium infiltration; YFP read by confocal microscopy
[2] = biological target: SCD2/RRP1 with Flag tag for co-immunoprecipitation (Arabidopsis thaliana) (UniProt Q8RWD5); experiment: co-IP; Arabidopsis protoplasts co-transformed, 14-16 h; lysate precipitated with anti-Flag agarose 2 h at 4 °C; blots with anti-Flag and anti-GFP
[3] = biological target: SCD2/RRP1, cLUC fusion for luciferase complementation (Arabidopsis thaliana) (UniProt Q8RWD5); experiment: split reporter; firefly luciferase complementation imaging in N. benthamiana leaves; 0 or 100 uM ABA sprayed for 6 h before 1 mM luciferin; weaker signal with ABA

Substance	binding [1]	binding [2]	further results
ABA … 1 (ABI1), YFP^N fusion for BiFC (from UniProt P49597 1-434)	binds		
PYR1 with GFP tag for co-immunoprecipitation (from UniProt O49686 1-191)		binds	
ABI1, nLUC fusion for luciferase complementation (from UniProt P49597 1-434)			binding [3]: binds

More lines, main results first:

binding [1]	binding [2]	Substance	further results
binds		PYRABACTIN … 1 (PYR1), YFP^N fusion for BiFC (from UniProt O49686 1-191)	
	binds	ABI1 with GFP tag for co-immunoprecipitation (from UniProt P49597 1-434)	
